{"source": "paper PMC6294118", "about": "(Pharmaceutical research, 2018)", "target": "T1, hOCT1 (Homo sapiens, UniProt O15245)", "T1 sequence (O15245 1-554)": "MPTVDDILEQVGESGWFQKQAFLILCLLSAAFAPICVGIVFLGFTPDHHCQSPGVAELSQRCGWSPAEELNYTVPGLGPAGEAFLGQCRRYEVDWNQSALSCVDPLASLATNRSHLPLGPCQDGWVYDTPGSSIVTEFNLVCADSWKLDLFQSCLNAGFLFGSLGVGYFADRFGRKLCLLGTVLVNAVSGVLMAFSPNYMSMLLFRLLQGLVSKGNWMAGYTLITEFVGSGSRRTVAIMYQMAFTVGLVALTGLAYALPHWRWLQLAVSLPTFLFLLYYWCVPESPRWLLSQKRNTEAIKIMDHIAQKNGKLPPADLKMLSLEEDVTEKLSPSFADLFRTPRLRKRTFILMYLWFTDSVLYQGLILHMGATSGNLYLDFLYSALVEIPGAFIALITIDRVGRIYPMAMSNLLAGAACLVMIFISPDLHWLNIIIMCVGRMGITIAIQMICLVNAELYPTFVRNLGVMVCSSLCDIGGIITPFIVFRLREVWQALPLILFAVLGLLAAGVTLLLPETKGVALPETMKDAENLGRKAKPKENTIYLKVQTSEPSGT", "conditions": "HEK293-hOCT1 vs HEK293-mock; 0.2 μM morphine, 2 min", "data": [{"smiles": "CN1CC[C@]23c4c5ccc(O)c4O[C@H]2[C@@H](O)C=C[C@H]3[C@H]1C5", "note": "[morphine]", "values": [{"measurement": "Uptake of morphine, fold relative to mock cells", "value": 3.56, "unit": "fold"}]}]}
